This assay has as its target Cas2 protein from Thermococcus onnurineus NA1 (TON_0320) (Thermococcus onnurineus NA1). As to the kind of experiment: pull-down; in vitro double pull-down: TON_0321 (75 μg) and Cas2 (75 μg) mixed, glutathione Sepharose 4B beads 2 h at 4 °C, eluted with 10 mM glutathione, eluate then on Ni-NTA agarose beads 2 h at 4 °C, eluted with 500 mM imidazole; 25 mM Tris-HCl pH 8.0, 150 mM NaCl, 5% glycerol; Coomassie-stained gels; both purified.

These are yes or no findings as the source states them, for the method shown.

B1: TON_0321, CAS-Cas4 protein from Thermococcus onnurineus NA1 (enzyme, UniProt B6YTB9 1-222)
chain: MGYPEEIEEFNERIRNAIVGKTPERKIWVTSLSYCLRKAALSIYLGTFKYERTGEMLVGSVLHEWLGNALSSEDIEFEVTVEYPLEDGWKLVGRVDAVKGNYPLEFKFKGFNGEDESSPKTPDEMNEPPKLAKEQLNAYLNMMDKKLGYIYVFDRNGLSFKPFPVERDKKAFQRILRRAKVVIEGVRQLESGSFPEWIKPRYGKRECGGCLFRPICEAVESK
For the molecule B1, the binding entry is given as “no binding (tested: 75 μg of each protein)”.

The values are drawn from PMC12538437, “Branched DNA processing by a thermostable CAS-Cas4 from Thermococcus onnurineus: Expanding biochemical landscape of nuclease activity”.
